# No constants are given. Whether binding was seen depends on the method and setting. Binding seen in cells or lysates may run through a third protein. A result given as binding can be weak or reduced; the word gives no strength.
# Biological target: T1, murine mCherry-GSDMD (murine) (UniProt Q9D8T2)
# T1 sequence: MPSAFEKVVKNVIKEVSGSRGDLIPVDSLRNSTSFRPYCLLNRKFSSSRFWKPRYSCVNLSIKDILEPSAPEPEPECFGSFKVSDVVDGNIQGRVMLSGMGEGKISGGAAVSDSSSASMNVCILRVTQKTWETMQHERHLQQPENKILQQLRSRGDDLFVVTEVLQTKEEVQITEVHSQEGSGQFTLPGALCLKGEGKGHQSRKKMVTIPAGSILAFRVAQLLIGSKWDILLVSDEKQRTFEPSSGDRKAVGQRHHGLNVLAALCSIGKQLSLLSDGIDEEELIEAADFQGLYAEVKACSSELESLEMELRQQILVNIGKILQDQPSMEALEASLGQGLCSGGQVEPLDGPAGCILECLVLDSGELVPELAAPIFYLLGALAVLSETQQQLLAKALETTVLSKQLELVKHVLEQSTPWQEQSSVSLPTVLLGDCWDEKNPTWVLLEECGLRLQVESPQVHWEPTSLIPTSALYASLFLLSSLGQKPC
# Assay: co-IP
substance,measurement,value
Myc-caspase-1 (enzyme),binding,binds
